Results published in patent publication EP4755912A1 (Shandong Boan Biotechnology Co., Ltd., dated 2026).
No constants are given. Whether binding was seen depends on the method and setting. Some binding calls cover weakened binding; strength is not graded here.

What was measured:
[1] = molecular target: T1, CD228 as expressed in human A375 cells and human tumor tissue sections (human) (UniProt P08582); test: Western blot of A375 cell lysate
T1 sequence (looked up): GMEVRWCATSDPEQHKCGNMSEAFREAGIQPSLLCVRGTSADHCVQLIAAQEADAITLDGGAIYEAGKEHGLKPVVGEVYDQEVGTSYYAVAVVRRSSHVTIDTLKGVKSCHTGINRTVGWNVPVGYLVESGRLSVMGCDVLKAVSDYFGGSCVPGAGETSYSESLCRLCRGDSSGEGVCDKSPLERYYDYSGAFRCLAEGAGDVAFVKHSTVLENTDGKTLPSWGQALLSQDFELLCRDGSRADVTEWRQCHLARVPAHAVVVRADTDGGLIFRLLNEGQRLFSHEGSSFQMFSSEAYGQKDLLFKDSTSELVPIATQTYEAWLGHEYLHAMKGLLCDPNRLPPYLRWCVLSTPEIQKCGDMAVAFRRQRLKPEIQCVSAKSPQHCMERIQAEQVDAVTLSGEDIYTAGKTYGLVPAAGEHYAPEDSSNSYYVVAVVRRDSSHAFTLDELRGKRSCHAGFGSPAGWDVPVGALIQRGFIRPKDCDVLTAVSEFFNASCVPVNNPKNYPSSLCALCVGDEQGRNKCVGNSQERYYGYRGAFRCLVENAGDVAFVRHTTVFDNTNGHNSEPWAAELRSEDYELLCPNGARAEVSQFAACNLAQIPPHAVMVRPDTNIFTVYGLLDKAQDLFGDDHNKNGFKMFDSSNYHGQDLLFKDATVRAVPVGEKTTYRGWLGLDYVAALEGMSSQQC

[2] = molecular target: T2, Human CD228 protein (human, UniProt P08582 20-708, limits assumed); test: ELISA
T2 construct: A His tag is named only for the panning and Western blot material (CD228-His); also called CD228 antigenic protein; C28
T2 sequence: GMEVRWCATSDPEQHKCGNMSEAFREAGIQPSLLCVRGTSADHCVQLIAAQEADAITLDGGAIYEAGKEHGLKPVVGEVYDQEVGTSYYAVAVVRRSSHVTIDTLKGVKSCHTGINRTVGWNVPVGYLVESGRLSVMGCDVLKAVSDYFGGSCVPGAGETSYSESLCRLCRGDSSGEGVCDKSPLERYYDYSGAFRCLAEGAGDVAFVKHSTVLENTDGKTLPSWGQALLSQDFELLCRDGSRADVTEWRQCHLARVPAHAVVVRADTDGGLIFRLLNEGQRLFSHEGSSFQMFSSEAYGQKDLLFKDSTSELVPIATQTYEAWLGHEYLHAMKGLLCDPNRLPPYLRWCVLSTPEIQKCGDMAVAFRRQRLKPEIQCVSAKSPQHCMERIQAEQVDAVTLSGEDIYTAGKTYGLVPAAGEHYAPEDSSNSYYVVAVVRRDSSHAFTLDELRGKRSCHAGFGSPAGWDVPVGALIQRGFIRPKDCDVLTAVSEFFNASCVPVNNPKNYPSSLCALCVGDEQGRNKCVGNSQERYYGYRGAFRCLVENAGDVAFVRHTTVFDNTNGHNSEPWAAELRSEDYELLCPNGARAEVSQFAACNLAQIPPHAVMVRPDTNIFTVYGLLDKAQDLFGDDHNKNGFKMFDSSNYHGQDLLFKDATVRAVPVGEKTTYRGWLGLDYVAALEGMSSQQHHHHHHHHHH

binding [1]: binds | binding [2]: binds
B1: R526 (antibody, V domains shown)
VH: QEQLEESGGRLVTPGTPLTLTCTVSGFSLSTYAINWIRQAPGKGLEWIGIIGGNGATYYTNWAKGRFTISKTSTTVDLKITSPTIEDTATYFCARGTNFWGPGTLVTVSS
VL: DPVLTQTASPVSAAVGGTITINCQASQSVYNNNQLSWFQQNPGQPPKRLIHSTSTLAPGVSSRFKGSGSGTQFTLTISDVQCDDAATYYCLGSYDCVSADCNAFGGGTEVVVKG
notes: Rabbit-derived clone, full-length antibody with rabbit constant regions
